Assay results taken from PubChem BioAssay AID445 (National Center for Advancing Translational Sciences (NCATS), 2006).
The other results are listed elsewhere or left out. Shown are side measurements of this screen, not its main read-out; they come without a call. Compounds called inactive in the main read-out are mostly missing here. Words in brackets tell the shape of the fitted curve; partial curves, single points and poor fits give uncertain potencies.

Experiment: IkB Signaling
Settings: ABC-DLBCL IkBa-CBG/CBR dual luciferase ratio (green luciferase fused to IkBa over red control in OCI-Ly3 lymphoma cells), 4 h
Outline: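 In this assay, an IκBα–CBG68 fusion accumulates when IKK-driven degradation is blocked; native CBR normalizes for cell number. OCI-Ly3 cells were treated 4 h with compound and doxycycline, then green and red light read after Chroma-Glo addition.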

[1] = measured here: control luc red channel unless noted

In the case of `COc1ccc(N2CCN(C(=O)CSc3nnnn3-c3ccc4c(c3)OCCO4)CC2)cc1`, the AC50 [1] is reported as 31.6 µM [falling, single point].

For `CCOc1ccccc1-n1c(CN2CCN(C(=O)c3ccco3)CC2)nc2ccccc2c1=O`, the AC50 [1] was 39.8 µM [falling, single point].

In the case of `COc1ccc(C)cc1S(=O)(=O)Nc1cccc(-c2ccc(N3CCC(C)CC3)nn2)c1`, the AC50 [1] is reported as 3.98 µM [falling, partial curve].

For `CCOc1cccc2cc(C(=O)N3CCN(C/C=C/c4ccccc4)CC3)c(=O)oc12`, the AC50 [1] was 3.98 µM [falling, partial curve].

With `CCOC(=O)c1cc(S(=O)(=O)Nc2ccc(OC(F)(F)F)cc2)[nH]n1` the AC50 [1] was 20 µM [falling, partial curve].

With `Nc1c(S(=O)(=O)c2cccs2)c2nc3ccccc3nc2n1/N=C/c1cccc(O)c1` the AC50 [1] was 2 µM [falling, full curve].

In the case of `Cc1cccc2cc3c(nc12)SC(=NCC1CCCO1)N(Cc1ccco1)C3` (stereo unspecified), the AC50 (measured here: IkB-luc green channel) is reported as 2.51 µM [rising, partial curve] and the AC50 (measured here: control luc red channel) is reported as 15.8 µM [falling, partial curve].

With `Cn1c(C(=O)NCc2ccc(F)cc2)cc2cc(S(=O)(=O)N3CCCCC3)ccc21` the AC50 [1] was 12.6 µM [falling, partial curve].

For `CN(c1ccccc1)C(CNS(=O)(=O)c1ccccc1)c1ccccc1` (stereo unspecified), the AC50 [1] was 25.1 µM [falling, partial curve].

For `CCOC(=O)c1oc2cc(O)ccc2c(=O)c1-c1ccccc1OC`, the AC50 [1] was 1 µM [falling, full curve].

In the case of `CC(OC(=O)c1cc2sccc2n1C)C(=O)NCc1cccs1` (stereo unspecified), the AC50 [1] is reported as 31.6 µM [falling, partial curve].

In the case of `Cc1ccc(CN(Cc2ccco2)C(=O)c2cccc(C)c2)cc1`, the AC50 [1] is reported as 31.6 µM [falling, single point].

With `CNS(=O)(=O)c1cn(CC(=O)N2CCN(c3ccc(C)cc3C)CC2)cc1S(=O)(=O)NC` the AC50 [1] was 25.1 µM [falling, partial curve, poor fit].

In the case of `Cc1ccc(C)c(NC(=O)CSc2nnc(C)n3c2cc2occc23)c1`, the AC50 [1] is reported as 15.8 µM [falling, partial curve].

For `COc1ccc(C2c3c(-c4ccccc4O)n[nH]c3C(=O)N2CCc2ccccc2)cc1` (stereo unspecified), the AC50 [1] was 10 µM [falling, partial curve].

For `CCC(C(=O)OC)n1nnc2sc(-c3ccccc3)cc2c1=O` (stereo unspecified), the AC50 [1] was 15.8 µM [falling, partial curve].

For `CCOC(=O)c1ccc(CN(Cc2ccc(Br)cc2)S(=O)(=O)c2cccc(C(F)(F)F)c2)cc1`, the AC50 [1] was 0.251 µM [falling, partial curve].

With `COc1ccc2c(c1)c(=O)c(C(=O)c1ccc(C)cc1)cn2Cc1ccccc1F` the AC50 [1] was 39.8 µM [falling, single point].

In the case of `COc1cccc(N2CC(NC(=O)C3CCCCC3)CC2=O)c1` (stereo unspecified), the AC50 [1] is reported as 6.31 µM [rising, full curve].

For `CC(=O)c1c(C)oc2ccc(NS(=O)(=O)c3ccc(C(C)C)cc3)cc12`, the AC50 [1] was 2.51 µM [falling, full curve].

In the case of `Cc1ccccc1C(=O)Nc1cccc(-c2cn3cccnc3n2)c1`, the AC50 [1] is reported as 1.26 µM [rising, full curve, poor fit].

For `COc1cccc(-c2cc(C(=O)Nc3ccc4c(c3)OCO4)no2)c1`, the AC50 [1] was 3.98 µM [falling, partial curve].

For `CC1CCc2nc(NC(=O)c3ccco3)sc2C1` (stereo unspecified), the AC50 [1] was 5.01 µM [falling, partial curve].

With `COc1ccc(-c2cc3nc(C)c(CCC(=O)Nc4ccc(F)cc4F)c(C)n3n2)c(OC)c1` the AC50 [1] was 0.501 µM [falling, full curve].

For `CCCNc1ccc(-c2nc(-c3ccco3)no2)cc1[N+](=O)[O-]`, the AC50 [1] was 3.98 µM [rising, partial curve].

For `CCOC(=O)c1[nH]c2ccccc2c1NC(=O)c1ccccc1OC`, the AC50 [1] was 25.1 µM [falling, partial curve].

For `Cc1ccc(Cl)cc1N1CCN(C(=O)c2cn(CC(C)C)c(=O)c3c2c2ccccc2n3C)CC1`, the AC50 [1] was 15.8 µM [falling, partial curve].

With `CCc1ccc(N2C(=O)CS(=O)(=O)C23C(=O)N(Cc2ccccc2)c2ccccc23)cc1` (stereo unspecified) the AC50 [1] was 2.51 µM [falling, full curve].

With `CSc1nc2ccc(NS(=O)(=O)c3ccc4c(c3)OCCO4)cc2s1` the AC50 [1] was 31.6 µM [falling, single point].

In the case of `Clc1c(CSc2nc3ccccc3o2)nc2ccccn12`, the AC50 [1] is reported as 25.1 µM [falling, single point].

In the case of `O=C(Nc1ccccc1C(F)(F)F)c1noc2c1CCCCC2`, the AC50 [1] is reported as 0.2 µM [rising, full curve].

With `CC(=O)c1ccc(NC(=O)C2CCCN(S(=O)(=O)c3cn(C)cn3)C2)cc1` (stereo unspecified) the AC50 [1] was 0.0501 µM [falling, full curve].

For `CCc1cccc(C)c1Nc1c(-c2ccc(N3CCOCC3)cc2)nc2ncccn12`, the AC50 [1] was 6.31 µM [falling, partial curve].

In the case of `CCOC(=O)C1CCCN(C(=O)c2cc3c(=O)n(C)c4ccccc4c3s2)C1` (stereo unspecified), the AC50 [1] is reported as 12.6 µM [falling, partial curve].

In the case of `CCCCOC(=O)c1cc2c(cn1)[nH]c1ccccc12`, the AC50 [1] is reported as 12.6 µM [falling, partial curve].

In the case of `CCOc1ccc(-c2c(C)nn3c(C)c(C(=O)NCC(C)c4ccccc4)cnc23)cc1OCC` (stereo unspecified), the AC50 [1] is reported as 25.1 µM [falling, single point].

For `Cc1ccc(CNC(=O)c2ccc3c(c2)N(Cc2cccc(Cl)c2)C(=O)CS3)cc1`, the AC50 [1] was 6.31 µM [falling, full curve].

In the case of `Cc1ccc(Cl)cc1NC(=O)Cn1c(=O)n(CCC(=O)N2CCc3ccccc3C2)c(=O)c2ccccc21`, the AC50 [1] is reported as 5.01 µM [falling, full curve, poor fit].

In the case of `CCOc1ccc(NC(=O)Cn2cc(C(=O)c3ccc(C)c(C)c3)c(=O)c3cc(F)ccc32)cc1`, the AC50 [1] is reported as 20 µM [falling, single point].

With `COc1cc(NC(=O)CSc2nc3nc(C)c(Cc4ccccc4)c(C)n3n2)cc(OC)c1` the AC50 [1] was 15.8 µM [falling, partial curve].
